Our source for the binding values is patent publication US20260258118A1.

For assay [1], the target named is T1, Pro-C3 target peptide … (C-terminal neo-epitope of PIIINP, 144-153 of the alpha1 chain) (human).
T1 sequence (peptide): CPTGPQNYSP
Description: antibody characterization with peptides (ELISA, as previously described).

The target of assay [2] is T2, PRO-C6 peptide … (last 10 amino acids of the type VI collagen alpha3 chain).
T2 sequence (peptide): KPGVISVMGT
The assay can be described thus: hybridoma clone screening with peptides.

Results are given in words; binding and its absence hold for the method and conditions named. Some binding calls cover weakened binding; strength is not graded here.

B1: Pro-C3 monoclonal antibody (monoclonal antibody NB61N-62) (antibody, mouse IgG2a, kappa, V domains shown)
VH: EVQLQQSGPEVLKPGASVKMSCKASGYTFINYVIHWLKQKAGQGPEWIGYMNPYNDVPKNNAKFRGKARLTSDRSSTTAYMELNSLTSEDSAVYYCARGGFFGPLSYWGQGTLVTVSA
VL: DVLMTQTPLSLSVSLGDQASISCRSSQNIVYSNGDTYFEWYLQKPGQSPKLLIYKVSQRFSGVPDRFSGSGSGTDFTLKISRVETEDLGVYYCFQGAHDPPAFGGGTKLELKR
For B1, in assay [1], the binding result is recorded as “binds”.

B2: PRO-C6 monoclonal antibody 10A3 (antibody, mouse IgG1, kappa, V domains shown)
VH: EVQLQQSGPVMVKPGTSVKTSCKASGYTFTDFNMNWVKQSHGKSLEWIGAINPHNGATSYNQKFSGKATLTVDKSSSTAYMELNSLTSDDSAVYYCARWGNGKNSWGQGTTLTVSS
VL: DVVMTQTPLSLPVNLGDQASISCRSSQRIVHSNGITFLEWYLQKPGQSPKLLIYRVSNRFSGVPDRFSGSGSGTDFTLKISRVEAEDLGLYYCFQGSHVPLTFGAGTRLELKR
For the molecule B2, the binding result in assay [2] is given as “binds”.
